This passage reports binding results from publication PMC5057110.

These are yes or no findings as the source states them, for the method shown. For some assays here: Where a sequence is shown, tags or fusion partners need not be part of it.

Assay [1] concerns the target T1, endogenous CD93 on human monocytes (human (endogenous in monocytes)), Q9NPY3.
T1 chain: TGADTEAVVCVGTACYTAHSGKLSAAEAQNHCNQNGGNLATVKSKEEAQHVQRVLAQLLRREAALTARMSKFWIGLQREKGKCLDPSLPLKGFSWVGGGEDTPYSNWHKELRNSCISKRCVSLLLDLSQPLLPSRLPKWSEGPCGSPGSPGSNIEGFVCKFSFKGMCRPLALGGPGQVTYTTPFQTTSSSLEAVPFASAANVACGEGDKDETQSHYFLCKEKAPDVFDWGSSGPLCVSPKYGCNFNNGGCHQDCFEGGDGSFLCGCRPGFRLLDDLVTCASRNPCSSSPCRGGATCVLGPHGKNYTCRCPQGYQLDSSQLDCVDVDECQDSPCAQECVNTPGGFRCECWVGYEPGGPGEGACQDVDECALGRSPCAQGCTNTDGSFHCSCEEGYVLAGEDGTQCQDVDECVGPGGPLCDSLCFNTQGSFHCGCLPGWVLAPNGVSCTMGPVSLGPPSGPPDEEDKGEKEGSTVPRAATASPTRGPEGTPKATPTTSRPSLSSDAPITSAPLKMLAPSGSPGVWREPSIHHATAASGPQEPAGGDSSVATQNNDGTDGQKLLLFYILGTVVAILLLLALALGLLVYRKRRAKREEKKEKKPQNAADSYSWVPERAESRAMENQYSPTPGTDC
The assay is described as follows: single-particle fluorescence intensity (amplitude of diffraction-limited PSFs); CD93 on live cells labelled at low density with anti-human CD93 (clone R139) and Cy3 Fab; amplitude of individual PSFs normalised to the modal amplitude of the data set; 37 °C. The following applies: remark: other sources report otherwise.

The target in assay [2] is T2, human CD93-GFP ectopically expressed on Chinese Hamster Ovary cells (human), Q9NPY3.
T2 chain: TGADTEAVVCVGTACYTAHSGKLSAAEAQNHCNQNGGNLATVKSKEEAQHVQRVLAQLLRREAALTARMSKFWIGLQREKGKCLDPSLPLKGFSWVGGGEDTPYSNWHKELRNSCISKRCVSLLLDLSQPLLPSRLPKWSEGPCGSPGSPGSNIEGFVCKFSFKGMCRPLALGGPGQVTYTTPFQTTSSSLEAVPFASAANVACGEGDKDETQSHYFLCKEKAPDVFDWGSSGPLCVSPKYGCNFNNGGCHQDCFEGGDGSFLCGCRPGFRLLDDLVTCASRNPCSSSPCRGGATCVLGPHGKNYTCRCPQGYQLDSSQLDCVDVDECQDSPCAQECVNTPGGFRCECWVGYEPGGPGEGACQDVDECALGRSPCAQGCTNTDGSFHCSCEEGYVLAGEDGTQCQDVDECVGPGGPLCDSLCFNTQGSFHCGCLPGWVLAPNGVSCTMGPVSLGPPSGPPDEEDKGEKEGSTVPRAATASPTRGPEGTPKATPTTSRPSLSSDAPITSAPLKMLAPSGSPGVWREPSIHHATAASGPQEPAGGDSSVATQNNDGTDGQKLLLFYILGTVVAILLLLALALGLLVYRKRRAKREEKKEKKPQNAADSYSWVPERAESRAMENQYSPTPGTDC
The assay is described as above. The settings on record: remark: other sources report otherwise.

B1: endogenous CD93 on human monocytes, Q9NPY3 22-652 (receptor)
chain: TGADTEAVVCVGTACYTAHSGKLSAAEAQNHCNQNGGNLATVKSKEEAQHVQRVLAQLLRREAALTARMSKFWIGLQREKGKCLDPSLPLKGFSWVGGGEDTPYSNWHKELRNSCISKRCVSLLLDLSQPLLPSRLPKWSEGPCGSPGSPGSNIEGFVCKFSFKGMCRPLALGGPGQVTYTTPFQTTSSSLEAVPFASAANVACGEGDKDETQSHYFLCKEKAPDVFDWGSSGPLCVSPKYGCNFNNGGCHQDCFEGGDGSFLCGCRPGFRLLDDLVTCASRNPCSSSPCRGGATCVLGPHGKNYTCRCPQGYQLDSSQLDCVDVDECQDSPCAQECVNTPGGFRCECWVGYEPGGPGEGACQDVDECALGRSPCAQGCTNTDGSFHCSCEEGYVLAGEDGTQCQDVDECVGPGGPLCDSLCFNTQGSFHCGCLPGWVLAPNGVSCTMGPVSLGPPSGPPDEEDKGEKEGSTVPRAATASPTRGPEGTPKATPTTSRPSLSSDAPITSAPLKMLAPSGSPGVWREPSIHHATAASGPQEPAGGDSSVATQNNDGTDGQKLLLFYILGTVVAILLLLALALGLLVYRKRRAKREEKKEKKPQNAADSYSWVPERAESRAMENQYSPTPGTDC
B1: in assay [1], the binding entry is on record as “no binding”.

B2: human CD93-GFP ectopically expressed on Chinese Hamster Ovary cells, Q9NPY3 22-652 (receptor)
chain: TGADTEAVVCVGTACYTAHSGKLSAAEAQNHCNQNGGNLATVKSKEEAQHVQRVLAQLLRREAALTARMSKFWIGLQREKGKCLDPSLPLKGFSWVGGGEDTPYSNWHKELRNSCISKRCVSLLLDLSQPLLPSRLPKWSEGPCGSPGSPGSNIEGFVCKFSFKGMCRPLALGGPGQVTYTTPFQTTSSSLEAVPFASAANVACGEGDKDETQSHYFLCKEKAPDVFDWGSSGPLCVSPKYGCNFNNGGCHQDCFEGGDGSFLCGCRPGFRLLDDLVTCASRNPCSSSPCRGGATCVLGPHGKNYTCRCPQGYQLDSSQLDCVDVDECQDSPCAQECVNTPGGFRCECWVGYEPGGPGEGACQDVDECALGRSPCAQGCTNTDGSFHCSCEEGYVLAGEDGTQCQDVDECVGPGGPLCDSLCFNTQGSFHCGCLPGWVLAPNGVSCTMGPVSLGPPSGPPDEEDKGEKEGSTVPRAATASPTRGPEGTPKATPTTSRPSLSSDAPITSAPLKMLAPSGSPGVWREPSIHHATAASGPQEPAGGDSSVATQNNDGTDGQKLLLFYILGTVVAILLLLALALGLLVYRKRRAKREEKKEKKPQNAADSYSWVPERAESRAMENQYSPTPGTDC
Turning to B2, the binding result in assay [2] was “no binding”.
